Test results reported in paper PMC4775225, “Bromodomain inhibition of the transcriptional coactivators CBP/EP300 as a therapeutic strategy to target the IRF4 network in multiple myeloma” (eLife, 2016).

Tested on: LP-1 cells
Test: RNA sequencing and Gene Set Enrichment Analysis
Type: cell-based, human
Conditions: 6 hr

Compound: Cc1sc2c(c1C)C(c1ccc(Cl)cc1)=N[C@@H](CC(N)=O)c1nnc(C)n1-2 [CPI203]
- fraction of MYC gene signatures significantly enriched (LP-1, CPI203 0.25 μM): 26/51
- fraction of multiple myeloma and IRF4 gene signatures significantly enriched (p<0.05) (LP-1, CPI203 0.25 μM): 9/58
- genes differentially expressed at least 1.5 fold (LP-1, CPI203 0.25 μM, of 20299 mapped genes): 2959 genes

Compound: COc1ccc(CCc2nc3cc(-c4c(C)noc4C)ccc3n2C[C@H](C)N2CCOCC2)cc1Cl [SGC-CBP30]
- fraction of MYC gene signatures significantly enriched (LP-1, SGC-CBP30 2.5 μM): 15/51
- fraction of multiple myeloma and IRF4 gene signatures significantly enriched (p<0.05) (LP-1, SGC-CBP30 2.5 μM): 26/58
